The values below come from the supplement of paper PMC12819154, “High-throughput peptide-centric local stability assay extends protein–ligand identification to membrane proteins, tissues and bacteria” (Nature Structural & Molecular Biology, 2025).

By UniProt entry, the sequences of proteins in these tests, tags left out. Where a name states a change or a piece, a line headed by the entry shows the natural chain unless it says otherwise.
UniProt B1AX39: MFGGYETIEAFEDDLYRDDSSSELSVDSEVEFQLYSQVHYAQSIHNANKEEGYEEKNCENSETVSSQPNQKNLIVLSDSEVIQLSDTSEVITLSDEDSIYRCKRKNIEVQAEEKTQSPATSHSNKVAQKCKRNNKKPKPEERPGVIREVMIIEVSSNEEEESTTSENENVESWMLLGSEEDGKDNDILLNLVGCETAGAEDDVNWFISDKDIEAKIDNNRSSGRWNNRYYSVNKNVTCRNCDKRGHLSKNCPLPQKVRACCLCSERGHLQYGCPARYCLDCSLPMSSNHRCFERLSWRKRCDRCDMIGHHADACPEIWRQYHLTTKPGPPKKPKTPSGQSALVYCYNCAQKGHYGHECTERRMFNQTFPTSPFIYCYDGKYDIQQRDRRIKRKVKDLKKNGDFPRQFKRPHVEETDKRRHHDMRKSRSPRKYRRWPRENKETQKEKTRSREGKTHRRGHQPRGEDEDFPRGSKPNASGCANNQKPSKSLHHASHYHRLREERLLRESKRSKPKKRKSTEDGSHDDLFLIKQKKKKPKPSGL
UniProt A6H619: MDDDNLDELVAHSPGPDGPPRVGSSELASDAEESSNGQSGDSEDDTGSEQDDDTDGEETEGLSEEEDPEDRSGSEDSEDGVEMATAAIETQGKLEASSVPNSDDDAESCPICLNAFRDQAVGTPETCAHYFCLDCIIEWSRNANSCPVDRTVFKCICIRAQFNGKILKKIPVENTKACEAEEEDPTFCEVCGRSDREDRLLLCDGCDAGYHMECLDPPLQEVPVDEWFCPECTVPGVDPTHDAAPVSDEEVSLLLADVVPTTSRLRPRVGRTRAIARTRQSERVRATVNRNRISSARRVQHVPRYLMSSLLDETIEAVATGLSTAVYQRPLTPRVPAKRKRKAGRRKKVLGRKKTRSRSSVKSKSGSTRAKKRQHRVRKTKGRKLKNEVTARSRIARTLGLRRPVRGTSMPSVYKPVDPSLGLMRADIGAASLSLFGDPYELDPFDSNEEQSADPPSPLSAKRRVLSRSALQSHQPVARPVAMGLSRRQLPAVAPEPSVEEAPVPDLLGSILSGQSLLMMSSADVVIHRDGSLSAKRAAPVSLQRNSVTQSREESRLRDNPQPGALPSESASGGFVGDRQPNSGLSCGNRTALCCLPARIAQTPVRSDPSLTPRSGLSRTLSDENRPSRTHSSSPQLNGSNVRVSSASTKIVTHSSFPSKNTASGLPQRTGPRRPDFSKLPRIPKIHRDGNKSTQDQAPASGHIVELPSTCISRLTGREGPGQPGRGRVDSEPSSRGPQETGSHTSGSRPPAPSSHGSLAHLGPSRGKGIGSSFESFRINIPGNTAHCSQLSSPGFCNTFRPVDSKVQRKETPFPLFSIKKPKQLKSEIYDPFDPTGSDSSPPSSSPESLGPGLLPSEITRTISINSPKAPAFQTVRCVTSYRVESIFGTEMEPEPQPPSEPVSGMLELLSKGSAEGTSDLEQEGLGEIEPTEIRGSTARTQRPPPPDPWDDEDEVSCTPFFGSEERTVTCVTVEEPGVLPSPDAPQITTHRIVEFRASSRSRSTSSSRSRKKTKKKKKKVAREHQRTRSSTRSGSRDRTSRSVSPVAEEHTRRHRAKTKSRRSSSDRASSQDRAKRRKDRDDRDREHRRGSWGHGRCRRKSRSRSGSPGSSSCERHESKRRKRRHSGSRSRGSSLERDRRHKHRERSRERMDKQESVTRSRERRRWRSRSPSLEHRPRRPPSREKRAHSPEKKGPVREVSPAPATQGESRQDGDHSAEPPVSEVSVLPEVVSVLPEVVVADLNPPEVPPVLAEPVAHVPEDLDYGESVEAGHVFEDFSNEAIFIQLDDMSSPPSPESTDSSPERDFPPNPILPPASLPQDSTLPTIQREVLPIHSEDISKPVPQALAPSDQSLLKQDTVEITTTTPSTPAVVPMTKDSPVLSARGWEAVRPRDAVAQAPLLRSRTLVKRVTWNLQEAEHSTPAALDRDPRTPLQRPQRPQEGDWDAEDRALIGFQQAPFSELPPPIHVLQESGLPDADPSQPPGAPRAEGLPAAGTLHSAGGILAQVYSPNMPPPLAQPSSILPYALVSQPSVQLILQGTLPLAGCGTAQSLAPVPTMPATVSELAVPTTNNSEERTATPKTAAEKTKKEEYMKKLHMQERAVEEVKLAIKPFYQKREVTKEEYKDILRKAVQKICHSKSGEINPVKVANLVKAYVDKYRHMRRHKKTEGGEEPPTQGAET
UniProt A6X8Z5, whole entry: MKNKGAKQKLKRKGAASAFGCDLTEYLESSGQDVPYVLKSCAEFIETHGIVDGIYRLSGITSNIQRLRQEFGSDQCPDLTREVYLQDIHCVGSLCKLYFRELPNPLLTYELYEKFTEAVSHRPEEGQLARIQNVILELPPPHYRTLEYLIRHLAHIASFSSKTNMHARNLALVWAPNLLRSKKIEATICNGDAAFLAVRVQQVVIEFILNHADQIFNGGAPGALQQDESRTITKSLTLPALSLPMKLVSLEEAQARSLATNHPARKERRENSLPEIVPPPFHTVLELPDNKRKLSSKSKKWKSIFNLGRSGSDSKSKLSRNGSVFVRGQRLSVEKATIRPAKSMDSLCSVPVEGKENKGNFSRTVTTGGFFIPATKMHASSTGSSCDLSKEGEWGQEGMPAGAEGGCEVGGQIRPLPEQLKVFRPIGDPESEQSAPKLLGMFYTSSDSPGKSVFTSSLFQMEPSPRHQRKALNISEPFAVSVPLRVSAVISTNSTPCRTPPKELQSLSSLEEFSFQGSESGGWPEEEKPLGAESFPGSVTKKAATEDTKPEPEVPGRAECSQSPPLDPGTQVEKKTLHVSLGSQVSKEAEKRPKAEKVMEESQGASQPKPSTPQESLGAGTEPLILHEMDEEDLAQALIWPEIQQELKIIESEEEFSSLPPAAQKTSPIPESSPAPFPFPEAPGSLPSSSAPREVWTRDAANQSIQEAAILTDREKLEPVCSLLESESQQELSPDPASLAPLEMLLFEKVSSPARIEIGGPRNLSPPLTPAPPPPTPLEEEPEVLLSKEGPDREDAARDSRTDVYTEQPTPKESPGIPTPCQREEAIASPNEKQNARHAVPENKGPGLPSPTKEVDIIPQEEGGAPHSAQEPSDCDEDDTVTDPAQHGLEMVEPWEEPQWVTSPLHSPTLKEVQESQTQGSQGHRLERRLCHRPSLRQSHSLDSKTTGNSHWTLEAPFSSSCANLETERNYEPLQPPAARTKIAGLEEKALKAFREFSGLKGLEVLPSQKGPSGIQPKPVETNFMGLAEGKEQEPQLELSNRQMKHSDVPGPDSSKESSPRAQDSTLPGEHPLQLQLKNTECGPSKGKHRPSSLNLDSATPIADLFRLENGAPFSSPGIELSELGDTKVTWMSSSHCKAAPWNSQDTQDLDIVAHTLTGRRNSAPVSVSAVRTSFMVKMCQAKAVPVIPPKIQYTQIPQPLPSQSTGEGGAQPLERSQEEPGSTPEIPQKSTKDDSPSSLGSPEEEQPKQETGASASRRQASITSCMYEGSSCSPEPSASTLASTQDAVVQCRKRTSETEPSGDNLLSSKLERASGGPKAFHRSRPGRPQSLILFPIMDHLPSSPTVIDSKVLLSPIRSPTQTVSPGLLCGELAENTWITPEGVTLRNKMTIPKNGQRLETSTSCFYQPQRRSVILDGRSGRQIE
UniProt A1Y9I9: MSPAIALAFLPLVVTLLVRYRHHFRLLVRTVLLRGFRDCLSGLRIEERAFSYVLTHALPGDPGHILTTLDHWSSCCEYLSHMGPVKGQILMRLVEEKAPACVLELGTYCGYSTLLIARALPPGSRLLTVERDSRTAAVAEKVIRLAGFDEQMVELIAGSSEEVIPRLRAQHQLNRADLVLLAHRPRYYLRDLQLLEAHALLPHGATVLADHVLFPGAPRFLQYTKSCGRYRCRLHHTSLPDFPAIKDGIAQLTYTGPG
UniProt A2AKB9: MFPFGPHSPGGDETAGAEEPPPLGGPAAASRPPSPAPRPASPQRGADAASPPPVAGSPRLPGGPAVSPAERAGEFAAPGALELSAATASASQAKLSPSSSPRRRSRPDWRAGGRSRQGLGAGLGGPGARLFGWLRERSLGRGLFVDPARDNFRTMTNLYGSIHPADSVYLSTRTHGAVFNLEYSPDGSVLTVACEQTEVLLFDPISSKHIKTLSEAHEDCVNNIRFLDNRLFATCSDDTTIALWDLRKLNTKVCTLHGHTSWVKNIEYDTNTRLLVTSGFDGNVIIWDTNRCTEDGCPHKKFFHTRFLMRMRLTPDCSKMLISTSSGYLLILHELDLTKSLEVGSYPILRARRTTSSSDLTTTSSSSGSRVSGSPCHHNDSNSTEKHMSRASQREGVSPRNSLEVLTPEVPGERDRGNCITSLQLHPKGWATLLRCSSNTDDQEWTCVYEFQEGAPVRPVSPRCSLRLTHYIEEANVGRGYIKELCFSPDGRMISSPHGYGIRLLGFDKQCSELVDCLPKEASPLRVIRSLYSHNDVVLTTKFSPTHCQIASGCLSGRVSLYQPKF
UniProt B1AZ99, whole entry: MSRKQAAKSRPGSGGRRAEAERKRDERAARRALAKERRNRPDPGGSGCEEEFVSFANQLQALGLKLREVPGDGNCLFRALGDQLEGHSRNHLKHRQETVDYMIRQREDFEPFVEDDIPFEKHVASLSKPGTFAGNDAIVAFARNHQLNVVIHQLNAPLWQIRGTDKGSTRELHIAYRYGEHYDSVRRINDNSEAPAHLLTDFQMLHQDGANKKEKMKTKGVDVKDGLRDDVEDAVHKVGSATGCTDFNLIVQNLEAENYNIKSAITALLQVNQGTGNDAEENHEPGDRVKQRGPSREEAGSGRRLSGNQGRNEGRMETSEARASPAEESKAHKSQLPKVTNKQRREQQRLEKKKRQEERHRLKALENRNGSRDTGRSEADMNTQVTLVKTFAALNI
UniProt A6H5X4: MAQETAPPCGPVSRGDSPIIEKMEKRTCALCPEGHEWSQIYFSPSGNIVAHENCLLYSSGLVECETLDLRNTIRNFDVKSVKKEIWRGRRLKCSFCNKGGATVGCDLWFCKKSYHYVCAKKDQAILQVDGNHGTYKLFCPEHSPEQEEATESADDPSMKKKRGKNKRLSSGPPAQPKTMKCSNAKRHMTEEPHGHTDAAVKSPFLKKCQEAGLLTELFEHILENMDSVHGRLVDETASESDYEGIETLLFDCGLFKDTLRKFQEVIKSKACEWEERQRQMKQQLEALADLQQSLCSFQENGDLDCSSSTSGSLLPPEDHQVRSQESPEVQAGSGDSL
UniProt A2ACJ2: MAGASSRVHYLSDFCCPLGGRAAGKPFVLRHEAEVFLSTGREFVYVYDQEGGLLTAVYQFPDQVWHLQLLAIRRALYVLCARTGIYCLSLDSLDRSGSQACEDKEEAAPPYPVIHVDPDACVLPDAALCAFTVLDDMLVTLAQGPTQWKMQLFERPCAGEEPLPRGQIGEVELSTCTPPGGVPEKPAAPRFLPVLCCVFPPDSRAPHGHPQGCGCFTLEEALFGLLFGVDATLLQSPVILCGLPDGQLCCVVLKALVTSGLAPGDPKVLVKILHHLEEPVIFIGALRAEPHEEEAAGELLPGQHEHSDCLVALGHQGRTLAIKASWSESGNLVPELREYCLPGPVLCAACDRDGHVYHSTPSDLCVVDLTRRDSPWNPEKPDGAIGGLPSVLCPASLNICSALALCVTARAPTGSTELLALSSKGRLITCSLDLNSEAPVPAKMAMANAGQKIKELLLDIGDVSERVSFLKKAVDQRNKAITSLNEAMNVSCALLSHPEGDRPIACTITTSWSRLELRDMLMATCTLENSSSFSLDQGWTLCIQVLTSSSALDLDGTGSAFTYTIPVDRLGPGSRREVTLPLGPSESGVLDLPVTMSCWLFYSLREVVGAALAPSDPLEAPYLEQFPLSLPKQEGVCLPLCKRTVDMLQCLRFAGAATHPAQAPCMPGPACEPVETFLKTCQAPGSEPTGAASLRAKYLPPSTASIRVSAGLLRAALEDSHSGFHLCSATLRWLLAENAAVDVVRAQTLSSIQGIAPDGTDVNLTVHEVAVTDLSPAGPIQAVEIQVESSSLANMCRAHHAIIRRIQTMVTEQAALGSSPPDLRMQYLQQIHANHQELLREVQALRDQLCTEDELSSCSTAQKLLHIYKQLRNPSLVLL
UniProt A2AS55: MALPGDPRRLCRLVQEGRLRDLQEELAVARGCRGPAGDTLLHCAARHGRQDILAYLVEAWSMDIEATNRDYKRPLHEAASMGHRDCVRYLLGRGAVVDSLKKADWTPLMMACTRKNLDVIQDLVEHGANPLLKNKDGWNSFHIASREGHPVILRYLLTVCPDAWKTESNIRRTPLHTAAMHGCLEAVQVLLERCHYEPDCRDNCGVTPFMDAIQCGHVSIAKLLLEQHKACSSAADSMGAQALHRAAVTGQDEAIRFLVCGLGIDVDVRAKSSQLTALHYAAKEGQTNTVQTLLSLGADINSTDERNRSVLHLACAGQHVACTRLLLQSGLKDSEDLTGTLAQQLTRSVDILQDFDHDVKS

The other results are listed elsewhere or left out. Small differences around the control level are noise.

Compound in the assay: CN[C@@H]1C[C@H]2O[C@@](C)([C@@H]1OC)n1c3ccccc3c3c4c(c5c6ccccc6n2c5c31)C(=O)NC4 [staurosporine]
Description: log2 fold change of tryptic peptide abundance, ligand vs vehicle (limited proteolysis) (log2 ratio); higher = more trypsin-susceptible (destabilized). The note with it: ligand concentration: 20 uM; sample: mouse liver crude lysate; replicate design: treated separately.
With “UniProt B1AX39 (peptide sequence: RPHVEETDKR, peptide start residue: 409)”, the log2 fold change is -0.597. For “UniProt A2AHG0 (peptide sequence: LQAELAAER, peptide start residue: 607)”, the log2 fold change is -0.303. With “A0A338P6K9 (peptide sequence: NTSAPLTVLDATSDKTK, peptide start residue: 1297), A0A338P6K9”, the log2 fold change was -0.365. As for “UniProt A6H619 (peptide sequence: TPLQRPQRPQEGDWDAEDR, peptide start residue: 1432)”, the figure is -0.466; as for “UniProt A3KMN5 (peptide sequence: IKEQANAPLIKPPAHPSAILTVLR, peptide start residue: 95)”, -0.451; as for “UniProt A2A690 (peptide sequence: YSQTPQIGR, peptide start residue: 1715)”, -0.854. For the target “UniProt A6H584 (peptide sequence: GDTLPHGLR, peptide start residue: 2217)”, the log2 fold change is 0.166. Turning to “UniProt A6X8Z5 (peptide sequence: TLHVSLGSQVSK, peptide start residue: 576)”, the log2 fold change was found to be 0.349. Turning to “UniProt B1AZP2 (peptide sequence: SEQGTLTSSESHSEAIPK, peptide start residue: 644)”, the log2 fold change turned out to be 0.337. The same measure for “UniProt A1Y9I9 (peptide sequence: AQHQLNR, peptide start residue: 169)”: 0.16. As for “UniProt A2AQH4 (peptide sequence: GSQAGAEGQPSTVK, peptide start residue: 764)”, the log2 fold change worked out at 0.389.

Turning to “UniProt A2ASQ1 (peptide sequence: GHQLLTQEHVLR, peptide start residue: 1681)”, the log2 fold change is 0.109. The same measure for “UniProt B2RQE8 (peptide sequence: VEAVHALVHKLPEKNR, peptide start residue: 456)”: 0.545; for “UniProt A2AKB9 (peptide sequence: QGLGAGLGGPGAR, peptide start residue: 117)”: 0.193; for “UniProt B1AZ99 (peptide sequence: DGLRDDVEDAVHK, peptide start residue: 225)”: 0.0905. The same measure for “UniProt B1AZA5 (peptide sequence: GGPAEAPSPR, peptide start residue: 5)”: -0.0642; for “UniProt B2RQC2 (peptide sequence: AALSVQDSSHSLPER, peptide start residue: 1144)”: 0.693; for “UniProt A6H5X4 (peptide sequence: SKACEWEER, peptide start residue: 268)”: 0.443. As for “UniProt A2ACJ2 (peptide sequence: MAMANAGQK, peptide start residue: 444)”, the log2 fold change is -0.313.

Regarding “A0A0B4J1G0 (peptide sequence: IQWSKEPQDK, peptide start residue: 240), A0A0B4J1G0”, the log2 fold change is -0.259. As for “UniProt B0V2N1 (peptide sequence: SGEGFIDFIGQVHK, peptide start residue: 1816)”, the figure is -0.0253; as for “UniProt A2AIW0 (peptide sequence: TLQISYEALKDENSK, peptide start residue: 264)”, 0.315. As for “UniProt A2AS55 (peptide sequence: LRDLQEELAVAR, peptide start residue: 19)”, the figure is -0.557.
